{"source": "PubChem BioAssay AID1259308 (NCATS, 2017)", "test": "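Knock-downs that increase output of a recombinant reporter protein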 (primary screen)", "cell system": "human HEK293 embryonic kidney cells stably expressing firefly luciferase (HEK-CMV-Luc2-Hygro)", "knock-down reagent": "single siRNA against human genes, 0.8 pmol siRNA per well", "duration": "72 h", "measured": "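Reporter luminescence and viable-cell signal on separate replicate plates, given as percent of non-targeting control and median/MAD z-scores, plus per-cell luciferase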", "reading the numbers": "total luciferase, z-score and total luciferase, % of control: higher = more reporter protein produced", "active means": "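Active when the median/MAD z-score for overall luciferase is greater than 3; a gene was taken forward for validation with new siRNAs if at least two of its three siRNAs passed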", "calls": "active = raised luciferase; inactive = no rise", "note": "Here is one part, drawn at random, of about 59,000 deposited reagents. About 1,510 of all reagents (2.6%) were called active. 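Calls use total luciferase alone and ignore viability, so some active siRNAs may act by altering cell number.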 Unmarked entries are inactive. The numbers tell different reagents against one gene apart. Further read-outs or replicates are left out here. Reagent sequences are not shown."}
{"gene": "MRPS22 (mitochondrial ribosomal protein S22)", "reagent": 1, "total luciferase, z-score": 0.136, "total luciferase, % of control": 84.6}
{"gene": "MRPS22 (mitochondrial ribosomal protein S22)", "reagent": 2, "total luciferase, z-score": -0.758, "total luciferase, % of control": 66.8}
{"gene": "MRPS22 (mitochondrial ribosomal protein S22)", "reagent": 3, "total luciferase, z-score": 1.63, "total luciferase, % of control": 114}
{"gene": "CLN8 (CLN8 transmembrane ER and ERGIC protein)", "reagent": 1, "total luciferase, z-score": 1.53, "total luciferase, % of control": 112}
{"gene": "CLN8 (CLN8 transmembrane ER and ERGIC protein)", "reagent": 2, "total luciferase, z-score": -0.157, "total luciferase, % of control": 78.8}
{"gene": "CLN8 (CLN8 transmembrane ER and ERGIC protein)", "reagent": 3, "total luciferase, z-score": 0.301, "total luciferase, % of control": 87.9}
{"gene": "MAPK13 (mitogen-activated protein kinase 13)", "reagent": 1, "total luciferase, z-score": 0.115, "total luciferase, % of control": 84.2}
{"gene": "MAPK13 (mitogen-activated protein kinase 13)", "reagent": 2, "total luciferase, z-score": 0.691, "total luciferase, % of control": 95.6}
{"gene": "MAPK13 (mitogen-activated protein kinase 13)", "reagent": 3, "total luciferase, z-score": -1.78, "total luciferase, % of control": 46.6}
{"gene": "CDH24 (cadherin 24)", "reagent": 1, "total luciferase, z-score": 0.76, "total luciferase, % of control": 97}
{"gene": "CDH24 (cadherin 24)", "reagent": 2, "total luciferase, z-score": -0.0955, "total luciferase, % of control": 80}
{"gene": "CDH24 (cadherin 24)", "reagent": 3, "total luciferase, z-score": 0.106, "total luciferase, % of control": 84}
{"gene": "WFDC13 (WAP four-disulfide core domain 13)", "reagent": 1, "total luciferase, z-score": 0.3, "total luciferase, % of control": 87.8}
{"gene": "WFDC13 (WAP four-disulfide core domain 13)", "reagent": 2, "total luciferase, z-score": -0.591, "total luciferase, % of control": 70.1}
{"gene": "WFDC13 (WAP four-disulfide core domain 13)", "reagent": 3, "total luciferase, z-score": 0.531, "total luciferase, % of control": 92.4}
{"gene": "OR13J1 (olfactory receptor family 13 subfamily J member 1)", "reagent": 1, "total luciferase, z-score": -0.951, "total luciferase, % of control": 63}
{"gene": "OR13J1 (olfactory receptor family 13 subfamily J member 1)", "reagent": 2, "total luciferase, z-score": -0.393, "total luciferase, % of control": 74.1}
{"gene": "OR13J1 (olfactory receptor family 13 subfamily J member 1)", "reagent": 3, "total luciferase, z-score": -0.206, "total luciferase, % of control": 77.8}
{"gene": "HDAC6 (histone deacetylase 6)", "reagent": 1, "total luciferase, z-score": -1.12, "total luciferase, % of control": 59.7}
{"gene": "HDAC6 (histone deacetylase 6)", "reagent": 2, "total luciferase, z-score": -0.204, "total luciferase, % of control": 77.8}
{"gene": "HDAC6 (histone deacetylase 6)", "reagent": 3, "total luciferase, z-score": 0.119, "total luciferase, % of control": 84.2}
{"gene": "YBX1 (Y-box binding protein 1)", "reagent": 1, "total luciferase, z-score": 1.11, "total luciferase, % of control": 104}
{"gene": "YBX1 (Y-box binding protein 1)", "reagent": 2, "total luciferase, z-score": 0.0444, "total luciferase, % of control": 82.8}
{"gene": "YBX1 (Y-box binding protein 1)", "reagent": 3, "total luciferase, z-score": -0.194, "total luciferase, % of control": 78}
{"gene": "SETD1A (SET domain containing 1A, histone lysine methyltransferase)", "reagent": 1, "total luciferase, z-score": -0.554, "total luciferase, % of control": 70.9}
{"gene": "SETD1A (SET domain containing 1A, histone lysine methyltransferase)", "reagent": 2, "total luciferase, z-score": 0.00827, "total luciferase, % of control": 82.1}
{"gene": "SETD1A (SET domain containing 1A, histone lysine methyltransferase)", "reagent": 3, "total luciferase, z-score": -0.451, "total luciferase, % of control": 72.9}
{"gene": "EEF2K (eukaryotic elongation factor 2 kinase)", "reagent": 1, "total luciferase, z-score": 0.555, "total luciferase, % of control": 92.9}
{"gene": "EEF2K (eukaryotic elongation factor 2 kinase)", "reagent": 2, "total luciferase, z-score": -0.509, "total luciferase, % of control": 71.8}
{"gene": "EEF2K (eukaryotic elongation factor 2 kinase)", "reagent": 3, "total luciferase, z-score": 0.405, "total luciferase, % of control": 89.9}
{"gene": "ATF7IP2 (activating transcription factor 7 interacting protein 2)", "reagent": 1, "total luciferase, z-score": -0.139, "total luciferase, % of control": 79.1}
{"gene": "ATF7IP2 (activating transcription factor 7 interacting protein 2)", "reagent": 2, "total luciferase, z-score": 2.56, "total luciferase, % of control": 133}
{"gene": "ATF7IP2 (activating transcription factor 7 interacting protein 2)", "reagent": 3, "total luciferase, z-score": 2.29, "total luciferase, % of control": 127}
